Data published in PubChem BioAssay AID1259415 (National Center for Advancing Translational Sciences (NCATS), 2018).
Out of some 410,000 compounds screened, about 18,000 (4.4%) were called active. The inconclusive results got no clear call from the source; some entries with a clear call stand among them for comparison. Cut-off read from the data, not from the text of the source: active = activity change below about -60%; inconclusive = no clear call, values can overlap the other calls; inactive = above about -39%.
% is set by controls: 0 for no effect and ±100 for the full control effect.

Assay: qHTS Assay for inhibitors of the human cytomegalovirus (HCMV)
Settings: HFF cells, HCMV-luciferase reporter, 72 h; at 57.5 µM; active compounds read low
Outline: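 Two-dose cell screen: HFF monolayers treated with compounds and infected with luciferase-expressing HCMV at 1 PFU/cell, 72 h at 37C, then lysed for luciferase measurement.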
With `COc1cccc(NC(=O)Nc2cc(C(=O)NC(C)C)ccc2N2CC3CC(C2)c2cccc(=O)n2C3)c1` (stereo unspecified) the activity change, negative = inhibition was inconclusive: -45.3%.
In the case of `CCC(C)NC(=O)CN1C(=O)CN=C(c2ccccc2)c2ccccc21` (stereo unspecified), the activity change, negative = inhibition is reported as inconclusive: -54.5%.
For `CN(C)S(=O)(=O)N1CCc2ccc(NC(=O)c3ccc(C(F)(F)F)cc3)cc2C1`, the activity change, negative = inhibition was inconclusive: -49.5%.
In the case of `CCCCn1ccnc1C(=O)c1cc(S(=O)(=O)N2CCOCC2)ccc1C`, the activity change, negative = inhibition is reported as active: -66.1%.
In the case of `CCCOc1ccc(CNC(=O)CN2C(=O)c3cccnc3Oc3ccc(C)cc32)cc1`, the activity change, negative = inhibition is reported as inconclusive: 0%.
For `COc1ccc(S(=O)(=O)NCc2ccc(C(=O)N3CCN(Cc4ccccc4)CC3)cc2)cc1`, the activity change, negative = inhibition was inconclusive: -45.7%.
With `CC/C(=N\NC(=O)c1c(-c2ccccc2)noc1C)c1ccc(C)o1` the activity change, negative = inhibition was inconclusive: -43.6%.
In the case of `O=C1CC(c2ccccc2)NC(=O)N1` (stereo unspecified), the activity change, negative = inhibition is reported as active: -99%.
With `CC(C)=C1SC(N2CCN(c3cccc(Cl)c3)CC2)=NC1=O` the activity change, negative = inhibition was inconclusive: -55.9%.
With `CN(CC(=O)Nc1cccc(S(=O)(=O)N2CCCC2)c1)CC(=O)Nc1ccc(F)c(F)c1F` the activity change, negative = inhibition was inactive: -11.8%.
In the case of `CCCCN(CC)C(=O)CCCn1c(=O)c2cccn2c2ccccc21`, the activity change, negative = inhibition is reported as inconclusive: -43.6%.
With `CC(C)c1ccc(CNC(=O)C2(C)CCCN2C)cc1` (stereo unspecified) the activity change, negative = inhibition was inactive: 17.4%.
For `O=C1C=C2C=C[C@H]3C[C@]2(O1)[C@@H]1CCCCN13`, the activity change, negative = inhibition was inconclusive: -48.8%.
With `c1ccc(-c2cc3c(N4CCCCC4)ncnc3s2)cc1` the activity change, negative = inhibition was inconclusive: -45.6%.
With `Cc1cc(-c2ccc(C)c(S(=O)(=O)NCCCN(Cc3ccccc3)C(C)C)c2)on1` the activity change, negative = inhibition was inconclusive: 0%.
With `Cc1ccc(NC(=S)N(CCN(C)C)Cc2cc3cc(C)cc(C)c3[nH]c2=O)cc1` the activity change, negative = inhibition was inactive: -18.4%.
With `Cc1cccc(CN2CCC(CNc3ncnc4onc(-c5ccc(Cl)cc5)c34)CC2)c1` the activity change, negative = inhibition was inconclusive: -44.9%.
For `CC(C)C[C@H]1CNC(=S)N1CC1CCCN1C[C@H](CC(C)C)N1C[C@H](Cc2ccc(O)cc2)N(CC2CCCCCC2)C1=S` (stereo partly specified), the activity change, negative = inhibition was active: -102%.
For `COC(=O)c1ccccc1NC(=O)Nc1ccc(Cl)cn1`, the activity change, negative = inhibition was inactive: 67.9%.
With `COc1ccc2c(=O)c(-c3ccccc3C)c(C)oc2c1` the activity change, negative = inhibition was inconclusive: -44.2%.
With `O=C1c2ccccc2C(=O)N1C1C=CC=CC=C1` the activity change, negative = inhibition was inconclusive: -40.8%.
With `CN(Cc1ccccc1)C(=O)c1nc[nH]c1C(=O)N1CCN(c2ccccc2)CC1` the activity change, negative = inhibition was inconclusive: -50.5%.
With `CCOc1ccc2c(c1)c(=O)c(S(=O)(=O)c1ccc(C)cc1)cn2Cc1ccccc1Cl` the activity change, negative = inhibition was inconclusive: -57.4%.
For `CC1=C(C(=O)OC(C)C)C(c2ccc(Cl)cc2)n2c(s/c(=C\c3ccc(OCC(=O)O)cc3)c2=O)=N1` (stereo unspecified), the activity change, negative = inhibition was inactive: 7.35%.
For `O=C1NC(=S)N/C1=C\c1cccnc1`, the activity change, negative = inhibition was inconclusive: -57.8%.
For `CC1(C)C(=O)NCCN1C(=O)c1ccc2nc(Cc3ccccc3F)oc2c1`, the activity change, negative = inhibition was inconclusive: -42.5%.
With `CC(C)c1ccc(-c2noc(C3CCCN(C(=O)c4ccc(F)cc4F)C3)n2)cc1` (stereo unspecified) the activity change, negative = inhibition was inactive: -8.44%.
For `Nc1cc2nc[nH]c2cc1N`, the activity change, negative = inhibition was inactive: 41.3%.
In the case of `CC(=O)Nc1ccc(N2C(=O)C3C4CC(=O)C(c5ccccc54)C3C2=O)cc1` (stereo unspecified), the activity change, negative = inhibition is reported as inconclusive: -43.1%.
In the case of `CCn1ncc(Br)c1C(=O)Nc1nccs1`, the activity change, negative = inhibition is reported as inactive: 20%.
For `Cc1cccc(C(=O)NNC(=O)c2ccc(S(=O)(=O)N3CCOCC3)cc2)c1`, the activity change, negative = inhibition was active: -74.8%.
With `CCC[C@@H]1C[C@@]1(CCC)[C@@H](NP(=O)(c1ccccc1)c1ccccc1)c1ccc(C(=O)OC)cc1` the activity change, negative = inhibition was inconclusive: -46.4%.
With `Cc1ccc(N2CCN(S(=O)(=O)c3c(C)nc4scc(C)n4c3=O)CC2)c(C)c1` the activity change, negative = inhibition was inactive: -28.9%.
For `Cc1cc(NS(=O)(=O)c2ccc(NC(=O)c3ccc([N+](=O)[O-])s3)cc2)nc(C)n1`, the activity change, negative = inhibition was active: -96.7%.
In the case of `COc1ccc(OC)c(CCNC(=O)CCn2nc(C)c3c(C)n(-c4ccccc4)nc3c2=O)c1`, the activity change, negative = inhibition is reported as inactive: -31.7%.
With `CCOC(=O)c1c(-c2ccccc2)nnn1-c1nc(OCC)nc(N2CCCCC2)n1` the activity change, negative = inhibition was inconclusive: -53.6%.
In the case of `O=C(NCc1cccnc1)c1csc([C@@H]2C[C@H](O)[C@@H](CO)O2)n1`, the activity change, negative = inhibition is reported as inactive: 1.46%.
In the case of `CN(CP(=O)(O)C(O)c1ccccc1)S(C)(=O)=O` (stereo unspecified), the activity change, negative = inhibition is reported as active: -88%.
For `Cc1c(Cl)cccc1NC(=S)N(CCN(C)C)C(C)c1ccco1` (stereo unspecified), the activity change, negative = inhibition was inconclusive: -53.3%.
In the case of `CCN(CC)c1ncnc2c1[nH]c1ccccc12`, the activity change, negative = inhibition is reported as inconclusive: -46.5%.
With `Cc1ccc(CC(=O)NCCCn2ccnc2)cc1` the activity change, negative = inhibition was inactive: -31.3%.
With `CNc1nc(NCC2CCCCC2)c2sccc2n1` the activity change, negative = inhibition was inconclusive: -56.3%.
In the case of `CN(C(=O)c1ccc(N2CCOCC2)c([N+](=O)[O-])c1)C1CCCCC1`, the activity change, negative = inhibition is reported as inactive: -25.2%.
For `O=C(NCCS(=O)(=O)c1ccc(Br)cc1)c1ccc(F)cc1`, the activity change, negative = inhibition was inactive: 90%.
For `COc1ccc(C(CC(=O)N2CCCC2)C(C)C)cc1` (stereo unspecified), the activity change, negative = inhibition was inconclusive: -52.9%.
In the case of `O=C(Nc1ccccc1F)c1ccn[nH]1`, the activity change, negative = inhibition is reported as inconclusive: -41.9%.
In the case of `Cc1ccc(Cl)cc1N(C)C(=O)C1CCCN(c2ncnc3onc(-c4ccc(F)cc4)c23)C1` (stereo unspecified), the activity change, negative = inhibition is reported as active: -73.3%.
With `Cc1cccc(NC(=O)Cn2nc([N+](=O)[O-])c(Br)c2C)n1` the activity change, negative = inhibition was inconclusive: -40.8%.
With `CN(N=Cc1ccc([N+](=O)[O-])cc1)c1ccccn1` the activity change, negative = inhibition was active: -69.8%.
For `C=C(C)C(=O)Nc1cccc(C2=NOC3(C2)C[C@@H](C(N)=O)N(C(=O)c2cc([N+](=O)[O-])cc([N+](=O)[O-])c2C)C3)c1` (stereo partly specified), the activity change, negative = inhibition was inactive: 53%.
With `Cc1ccc(Cn2c(CCNC(=O)C(C)C)nc3ccccc32)cc1` the activity change, negative = inhibition was inactive: 6.25%.
In the case of `COc1ccccc1-n1c(SCC(=O)Nc2ccc(Cl)cc2)nc(O)c(Cc2ccccc2)c1=O`, the activity change, negative = inhibition is reported as inconclusive: -42.2%.
In the case of `COc1cccc(C(=O)C2CCCN(Cc3cccc4c3OCO4)C2)c1` (stereo unspecified), the activity change, negative = inhibition is reported as inconclusive: -59.5%.
With `Nc1ncc([N+](=O)[O-])c(N2CCCCCC2)n1` the activity change, negative = inhibition was active: -74.6%.
In the case of `Cc1ccc(S(=O)(=O)N2CCSC2c2ccco2)cc1` (stereo unspecified), the activity change, negative = inhibition is reported as inactive: 24.5%.
With `Cn1c(=O)c2cc(NC(=S)NCc3ccccc3F)ccc2n1Cc1cccc(C(F)(F)F)c1` the activity change, negative = inhibition was active: -68.9%.
In the case of `CCc1sc(NC(=O)c2cc3ccccc3oc2=O)nc1-c1cccs1`, the activity change, negative = inhibition is reported as inconclusive: -48.1%.
In the case of `CCOCCCn1c(=N)c(S(=O)(=O)c2ccc(Cl)cc2)cc2c(=O)n3cccc(C)c3nc21`, the activity change, negative = inhibition is reported as inactive: -4.45%.
In the case of `N#C/C(=C\c1ccc([N+](=O)[O-])o1)c1nc2ccccc2[nH]1`, the activity change, negative = inhibition is reported as active: -93.7%.
In the case of `Cc1ccccc1-c1nnn(Cc2cccc(S(=O)(=O)N3CCOCC3)c2)n1`, the activity change, negative = inhibition is reported as inconclusive: -57.1%.
In the case of `C=CCNc1nc2ccccc2c(=O)[nH]1`, the activity change, negative = inhibition is reported as inconclusive: -47.4%.
In the case of `COc1ccc(NS(=O)(=O)c2ccc(C)c(C(=O)N(C)CCc3ccc(OC)c(OC)c3)c2)cc1`, the activity change, negative = inhibition is reported as inactive: -17.1%.
For `CCCCC(=O)NNC(=S)NC(=O)c1ccc(C)cc1`, the activity change, negative = inhibition was inactive: -23.6%.
For `Cc1ccccc1NC(=O)c1ccc(N(Cc2ccccc2)S(C)(=O)=O)cc1`, the activity change, negative = inhibition was inconclusive: -50.3%.
With `CCc1nc(N2CCCC(C)C2)c2oc3ccccc3c2n1` (stereo unspecified) the activity change, negative = inhibition was inconclusive: -52.6%.
In the case of `c1ccc2c(CSCc3nc4ccccc4[nH]3)cccc2c1`, the activity change, negative = inhibition is reported as active: -92.5%.
In the case of `CCCCNc1nnc(CCn2nc(C)c(Br)c2C)s1`, the activity change, negative = inhibition is reported as inconclusive: -43.3%.
For `O=C(O)C1(P(=O)(c2ccc(Cl)cc2)c2ccc(Cl)cc2)CC1`, the activity change, negative = inhibition was inconclusive: -45.5%.
For `COc1cc(OC)cc(C(=O)Nc2ccc(Cn3ccnc3)cc2)c1`, the activity change, negative = inhibition was inactive: 6.58%.
With `CC(C)c1ccc(NC(=O)Cn2c(=O)oc3ccccc32)cc1` the activity change, negative = inhibition was inconclusive: -46.2%.
In the case of `Cc1cc(C(=O)N/N=C/c2ccc[nH]2)n[nH]1`, the activity change, negative = inhibition is reported as inconclusive: -54.8%.
With `COc1ccc(-c2nc(CSCC(=O)N3CCN(c4ccccc4)CC3)c(C)o2)cc1` the activity change, negative = inhibition was active: -64.8%.
With `CC(=O)c1cccc(NS(=O)(=O)c2cccc(S(=O)(=O)c3ccc(Br)cc3)c2)c1` the activity change, negative = inhibition was inconclusive: -43.2%.
For `O=C1C2CCCN2C(c2cccs2)N1c1ccc(Cl)cc1` (stereo unspecified), the activity change, negative = inhibition was active: -73.9%.
For `O=c1[nH]c2ccc(Br)cc2c(=O)o1`, the activity change, negative = inhibition was inconclusive: -44.6%.
For `CCOc1cc(S(=O)(=O)NCCc2c(C)[nH]c3ccc(C)cc23)ccc1Br`, the activity change, negative = inhibition was inactive: -9.9%.
With `Cc1cc(C[n+]2ccccc2)c2nsnc2c1` the activity change, negative = inhibition was inconclusive: -53%.
With `Cc1ncc(CN2CCN(CCC(C)C)C(CCO)C2)s1` (stereo unspecified) the activity change, negative = inhibition was inconclusive: -44.4%.
For `O=C(Nc1ccccc1)c1ccc(CN2CCc3ccccc3C2)cc1`, the activity change, negative = inhibition was active: -67.1%.
In the case of `O=C(Cc1csc(Nc2nc(=S)[nH]c3ccccc23)n1)NCCCN1CCN(c2ccccc2F)CC1`, the activity change, negative = inhibition is reported as active: -97.9%.
With `CC(=O)N(/N=C/c1ccc([N+](=O)[O-])o1)c1nc2ccccc2c(=O)n1-c1ccccc1` the activity change, negative = inhibition was active: -63.7%.
For `O=C(CN1C(=O)NC2(CCCCC2)C1=O)Nc1cc(C(F)(F)F)ccc1N1CCCCC1`, the activity change, negative = inhibition was inconclusive: -50.9%.
With `Cc1cccc([C@@H]2[C@@H]3C(=O)N(Cc4ccccc4)C(=O)[C@@H]3[C@]3(Cc4ccccc4)C(=O)N(c4ccc(C(F)(F)F)cc4)C(=O)N23)c1` the activity change, negative = inhibition was inconclusive: -48.4%.
With `O=C(c1cc(-c2cccs2)on1)N1CCN(C(c2ccccc2)c2ccccc2)CC1` the activity change, negative = inhibition was inconclusive: -40.2%.
With `C[C@H](CO)N1C[C@H](C)[C@@H](CN(C)S(=O)(=O)c2ccccc2F)OCc2cnnn2CCCC1=O` the activity change, negative = inhibition was inactive: -4.26%.
For `N#CC1=C(Nc2ccccc2)SC=C(c2ccccc2)N=C1N1CCOCC1`, the activity change, negative = inhibition was inactive: 4.11%.
